The campaign covered roughly 310,000 compounds. About 17,000 (5.5%) were called active. This list was built around the results that the source calls inconclusive (neither active nor inactive); the mix of calls is not that of the screen. Calls follow the shape of the dose curve; as a rule, active = well fitted inhibition curve with a large enough effect; inconclusive = small, poorly fitted or top-dose-only effect, or effect the other way; inactive = no such curve, though single readings can be large or run the other way. A potency beside an inconclusive call is a rough fit, not a confirmed value.
These compounds were tested against Nuclear receptor ROR-gamma (Mus musculus) (UniProt P51450) (assay: qHTS for inhibitors of ROR gamma transcriptional activity). Settings: Drosophila S2 Gal4-RORgamma UAS-luciferase reporter, 20 h; series mostly up to 53.6 µM.
In short: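 Stably transfected Drosophila Schneider cells are the test system, with ROR gamma fused to Gal4 and luciferase under UAS control; luminescence is read after 20 hr of 700 uM copper sulfate induction at ambient temperature.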
Also: nearly all actives have a fitted effect of over 60% in size.
Potency is read from the fitted curve at half-maximal effect.

By UniProt entry, the sequences of proteins in these tests, tags left out. Where a name states a change or a piece, a line headed by the entry shows the natural chain unless it says otherwise.
UniProt P51450: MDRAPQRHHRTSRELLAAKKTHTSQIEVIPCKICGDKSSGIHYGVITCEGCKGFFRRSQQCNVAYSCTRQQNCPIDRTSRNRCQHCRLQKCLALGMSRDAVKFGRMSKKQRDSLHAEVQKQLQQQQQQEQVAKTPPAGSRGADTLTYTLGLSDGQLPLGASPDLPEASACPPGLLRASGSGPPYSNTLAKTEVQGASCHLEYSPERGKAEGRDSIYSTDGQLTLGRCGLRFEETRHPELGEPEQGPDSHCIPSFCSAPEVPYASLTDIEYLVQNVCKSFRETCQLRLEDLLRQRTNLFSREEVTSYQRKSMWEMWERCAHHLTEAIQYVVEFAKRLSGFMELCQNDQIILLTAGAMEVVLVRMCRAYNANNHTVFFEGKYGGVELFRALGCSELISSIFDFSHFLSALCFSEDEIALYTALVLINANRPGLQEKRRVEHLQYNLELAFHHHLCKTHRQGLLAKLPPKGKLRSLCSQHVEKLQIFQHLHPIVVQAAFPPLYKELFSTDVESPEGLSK

Potency, active:
Cc1nc(NC(=S)NC(=O)c2cccs2)ccc1Br 1.41 µM, O=C(CSc1ccccc1)N/N=C/c1ccccc1O 0.631 µM, Cc1cccc(C)c1NC(=S)N1CCCN(Cc2ccc(F)cc2)C1 14.1 µM, Cc1cccc(NNC(N)=S)c1C 10 µM, COc1ccc(OC)c2sc(N(CCN(C)C)C(=O)/C=C/c3cccs3)nc12 15.8 µM, CCCOc1ccc(CC(=O)NCc2ccco2)cc1OC 11.2 µM, CC(C)(C)c1ccc(/C=N/NC(=S)NCc2ccccc2)cc1 0.794 µM

Potency, inconclusive:
COc1ccccc1-c1ccc(SCc2ccc([N+](=O)[O-])cc2)nn1 10 µM [activator, partial curve, poor fit], N=c1oc2ccccc2cc1-c1nc(-c2ccc(Cl)cc2)cs1 20 µM [activator, single point], CCOc1ccc(/C=N/NC(=O)c2c(-c3ccccc3)noc2C)cc1 3.16 µM [inhibitor, single point], CCCCOc1ccc(-c2nnc(N)s2)cc1 12.6 µM [inhibitor, partial curve], CCOC(=O)c1oc2cccc(O)c2c1CN(Cc1ccccc1)C(C)=O 31.6 µM [activator, single point], CCc1cccc(NC(=O)Cn2c(-c3ccccc3)cc(C(C)=O)c2C)c1 35.5 µM [activator, single point], CN(CC(=O)N1CCc2ccccc21)S(=O)(=O)c1ccc(Cl)cc1 35.5 µM [activator, single point], N#CC1=C2SCN(c3ccc(F)cc3)CN2C(=O)CC1c1cccc(F)c1 (stereo not given) 35.5 µM [inhibitor, single point], Cc1nc(Cl)sc1C(=O)Nc1ccc(C(C)(C)C)cc1 11.2 µM [activator, partial curve], COc1ccc(S(=O)(=O)Nc2ccc3c(c2)OCO3)cc1OC 10 µM [activator, partial curve], CC(C)c1ccc(C(=O)NNC(=O)C2C3CCC(C3)C2C(=O)O)cc1 (stereo not given) 35.5 µM [inhibitor, single point], O=C1c2ccccc2S(=O)(=O)N1Cc1nnc(-c2ccccc2Br)o1 0.316 µM [activator, full curve, poor fit], CCOc1ccc(Nc2nc(NCC3CCCO3)c3ccccc3n2)cc1 (stereo not given) 35.5 µM [inhibitor, single point], Cc1ccc(N2CC(C(=O)N/N=C/c3sccc3C)CC2=O)cc1 (stereo not given) 17.8 µM [inhibitor, single point], C=C(C)COc1ccc2c3c(c(=O)oc2c1OCC(=C)C)CCC3 28.2 µM [activator, single point], Cc1ccc(/C=N/NC(=O)CSc2nc3ccccc3n2Cc2ccccc2)o1 25.1 µM [inhibitor, single point], CC(=O)N1N=C(c2ccco2)CC1c1ccco1 (stereo not given) 2 µM [inhibitor, full curve, poor fit], COC(=O)c1sccc1NC(=O)Nc1ccccc1OC 12.6 µM [activator, single point], CN(CC(=O)Nc1ccc(Cl)c(C(F)(F)F)c1)C(=O)Cc1cccs1 28.2 µM [activator, single point], Cc1ccc(C(=O)NNC(=S)NC(=O)COc2ccccc2)cc1 22.4 µM [inhibitor, single point], Cn1c(SCC2CCCO2)nnc1-c1ccncc1 (stereo not given) 35.5 µM [activator, single point], Cc1cc2c3c(c1)C(C)(c1ccccc1)CC(C)(C)N3C(=O)C21C(C#N)=C(N)OC2=C1C(=O)CC(C)(C)C2 (stereo not given) 35.5 µM [inhibitor, single point], CCOC(=O)c1[nH]c(C)c(/C(O)=C2\C(=O)C(=O)N(CCCN3CCOCC3)C2c2cccs2)c1C (stereo not given) 35.5 µM [inhibitor, single point], Cc1ccc(C(=O)/C=C/c2ccc(Br)cc2)o1 35.5 µM [inhibitor, single point], Cn1nc([N+](=O)[O-])nc1Sc1nnc(-c2ccccc2)o1 22.4 µM [inhibitor, single point]

Potency, inactive:
S=C(Nc1cccnc1)Nc1cccc2cnccc12, O=C(CN1C(=O)c2ccccc2S1(=O)=O)NCCSCc1c(F)cccc1Cl, Cc1ccc(SCc2cc(=O)[nH]c(SCC(=O)Nc3cc(Cl)ccc3Cl)n2)cc1, CCOC(=O)N1CCC(N2Cc3cccc(C(=O)Nc4cccc(F)c4)c3C2=O)CC1, CCc1ccc(Nc2nnc(SCC(=O)Nc3sccc3C(N)=O)s2)cc1, Cc1cc(CNC(=O)c2cc(COc3ccc(F)c(F)c3)on2)nn1C, c1ccc(-c2nnc3n2CCCC3)cc1, O=C1ON=C(c2ccccc2)/C1=C/c1ccco1, COc1cccc(NC(=O)c2ccnc(N3CCC(C(=O)NCc4cc(OC)ccc4OC)CC3)c2)c1, O=C(CCc1nnc(-c2ccc3c(c2)OCO3)o1)NCCc1ccccc1F, Cc1cc(C)c2c(=O)[nH]c(SCC(=O)c3ccc(C(C)C)cc3)nc2n1, O=C(Nc1cccc2ccccc12)c1cn(-c2ccccc2)nc1-c1cccs1, O=C(C1CCC(CNc2c(N3CCCCC3)c(=O)c2=O)CC1)N1CCN(c2ccccn2)CC1 (stereo not given), COc1ccc(-c2cc(-c3ccc(OC)cc3)nc(-c3ccc4c(c3)NC(=O)CO4)c2)cc1, COC(=O)c1ccccc1NC(=O)c1onc(C)c1Cl, Cc1c(/C(Cc2ccccc2)=N/O)c2ccccc2n1C, CCCCCCCCCCCCCC/C(C(=O)O)=C(\C)C(=O)O, CC1C/C(=N/Nc2ccc([N+](=O)[O-])cc2[N+](=O)[O-])CC(C)(C)C1 (stereo not given)
